This is one part of the list. Single values are uncertain, as repeats are few or missing.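 Cells were imaged in 1,536-well plates, and nuclei stained with an antibody against cleaved PARP were counted against all DNA-stained nuclei to give the apoptosis fraction. Screening doses were chosen to leave most cells alive, and resting and induced cleaved-PARP levels differ strongly between cell lines.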

The test relates to COLO829. Put plainly: cleaved PARP positive nuclei fraction relative to DMSO control; melanoma cells; higher = more apoptosis. The conditions noted are these: library dose: low library concentration; 72 h.
Consider `C[C@]1(O)C[C@@H](c2nc(-c3ccc4ccc(-c5ccccc5)nc4c3)c3c(N)nccn32)C1` + C[C@@H]1CCN(C(=O)CC#N)C[C@@H]1N(C)c1ncnc2[nH]ccc12 [CP690550] (first compound 0.4 µM, partner dose 1 µM), for which the “cleaved PARP positive nuclei fraction” value turned out to be 63%.
Turning to `Cn1sc(=O)n(Cc2ccccc2)c1=O` + NCC(=O)Nc1ccc(-n2nc(C(F)(F)F)cc2-c2ccc3c(ccc4ccccc43)c2)cc1 [OSU03012] (first compound 0.4 µM, partner dose 1 µM), the “cleaved PARP positive nuclei fraction” value came to 82.5%.
For `Cn1sc(=O)n(Cc2ccccc2)c1=O` + COc1cc2ncnc(Nc3ccc(Oc4ccccc4)cc3)c2cc1OC [SrcI1] (first compound 0.4 µM, partner dose 2 µM), the “cleaved PARP positive nuclei fraction” value was 20.6%.
`Cn1cnc2c(F)c(Nc3ccc(Br)cc3Cl)c(C(=O)NOCCO)cc21` [selumetinib] + Oc1nc(-c2ccc(C(F)(F)F)cc2)nc2c1CSCC2 [XAV939] (first compound 0.015 µM, partner dose 2 µM): the “cleaved PARP positive nuclei fraction” value turned out to be 83.8%.
As for `CCCCCCCCc1ccc(CCC(N)(CO)CO)cc1` [fingolimod] + O=C(CCCCCCC(=O)Nc1ccccc1)NO [vorinostat] (first compound 2 µM, partner dose 0.08 µM), the “cleaved PARP positive nuclei fraction” value stood at 180%.
As to `NC1(c2ccc(-c3nc4ccn5c(=O)[nH]nc5c4cc3-c3ccccc3)cc2)CCC1` + COc1cc2ncnc(Nc3ccc(Oc4ccccc4)cc3)c2cc1OC [SrcI1] (first compound 0.4 µM, partner dose 2 µM), the “cleaved PARP positive nuclei fraction” value is 65.4%.
For `CCCCCCCCc1ccc(CCC(N)(CO)CO)cc1` [fingolimod] + Cc1ccc(NC(=O)c2cccc(N(C)C)c2)cc1NC(=O)c1ccc(O)cc1 [ZM336372] (first compound 2 µM, partner dose 2 µM) the value was 93.2%.
Take `Cn1sc(=O)n(Cc2ccccc2)c1=O` + Cn1cc(/C=C2\C(=O)Nc3cccnc32)c2ccccc21 [GW441756] (first compound 0.4 µM, partner dose 0.4 µM): the “cleaved PARP positive nuclei fraction” value was 57.2%.
As to `CCN(CC)CCNC(=O)c1c(C)[nH]c(/C=C2\C(=O)Nc3ccc(F)cc32)c1C` [sunitinib] + CC1(C)NC(=O)N(c2ccc([N+](=O)[O-])c(C(F)(F)F)c2)C1=O [nilutamide] (first compound 0.4 µM, partner dose 1 µM), the “cleaved PARP positive nuclei fraction” value was determined as 58.7%.
For `CN(c1ncccc1CNc1nc(Nc2ccc3c(c2)CC(=O)N3)ncc1C(F)(F)F)S(C)(=O)=O` + COc1cc2c(Oc3ccc4[nH]c(C)cc4c3F)ncnc2cc1OCCCN1CCCC1 [cediranib] (first compound 0.08 µM, partner dose 0.4 µM) the value was 131%; for `C[C@@H](N)c1ccc(C(=O)Nc2ccnc3[nH]ccc23)cc1` + COc1cc2ncnc(Nc3ccc(Oc4ccccc4)cc3)c2cc1OC [SrcI1] (first compound 0.4 µM, partner dose 2 µM), 112%.
For the compound `CCCCCCCCc1ccc(CCC(N)(CO)CO)cc1` [fingolimod] + Oc1cc(-c2nc(-c3ccccc3)[nH]c2-c2ccncc2)ccc1Cl [L779450] (first compound 2 µM, partner dose 0.2 µM), the “cleaved PARP positive nuclei fraction” value is 50.5%.
For the compound `C[C@@H](N)c1ccc(C(=O)Nc2ccnc3[nH]ccc23)cc1` + O=S(=O)(c1ccccc1)N(CC(F)(F)F)c1ccc(C(O)(C(F)(F)F)C(F)(F)F)cc1 [T0901317] (first compound 0.4 µM, partner dose 1.4 µM), the “cleaved PARP positive nuclei fraction” value came to 138%.
For `CN(c1ncccc1CNc1nc(Nc2ccc3c(c2)CC(=O)N3)ncc1C(F)(F)F)S(C)(=O)=O` + O=c1cc(-c2cccc3c2Sc2ccccc2S3)oc(N2CCOCC2)c1 [KU55933] (first compound 0.08 µM, partner dose 1 µM) the value was 72.5%; for `C[C@]1(O)C[C@@H](c2nc(-c3ccc4ccc(-c5ccccc5)nc4c3)c3c(N)nccn32)C1` + CCc1ccc(CCOc2ccc(CC3SC(=O)NC3=O)cc2)nc1 [pioglitazone] (first compound 0.4 µM, partner dose 2 µM), 78.1%.
For `C[C@]1(O)C[C@@H](c2nc(-c3ccc4ccc(-c5ccccc5)nc4c3)c3c(N)nccn32)C1` + COc1ccc2c(c1)CCC1C2CCC2(C)C(NCCCCCCN3C(=O)C=CC3=O)CCC12 [U73122] (first compound 0.4 µM, partner dose 0.4 µM) the value was 60%; for `C[C@]1(O)C[C@@H](c2nc(-c3ccc4ccc(-c5ccccc5)nc4c3)c3c(N)nccn32)C1` + O=C1NC(=O)/C(=C/c2ccc(-c3ccc(F)cc3O)o2)S1 [AS252424] (first compound 0.4 µM, partner dose 1 µM), 163%.
For the compound `CC1(C)CCC(c2ccc(Cl)cc2)=C(CN2CCN(c3ccc(C(=O)NS(=O)(=O)c4ccc(N[C@H](CCN5CCOCC5)CSc5ccccc5)c(S(=O)(=O)C(F)(F)F)c4)cc3)CC2)C1` + O=C(Nc1cccc(Cl)c1)Nc1ncc(CCNc2ncnc3ccsc23)s1 [SNS314] (first compound 0.4 µM, partner dose 0.0008 µM), the “cleaved PARP positive nuclei fraction” value was found to be 172%.
As to `C[C@]1(O)C[C@@H](c2nc(-c3ccc4ccc(-c5ccccc5)nc4c3)c3c(N)nccn32)C1` + O=C(Nc1ccccc1)c1cc([N+](=O)[O-])ccc1Cl [GW9662] (first compound 0.4 µM, partner dose 2 µM), the “cleaved PARP positive nuclei fraction” value worked out at 108%.
For `NC1(c2ccc(-c3nc4ccn5c(=O)[nH]nc5c4cc3-c3ccccc3)cc2)CCC1` + Cc1cc(N2CCOCC2)cc2[nH]c(-c3c(NC[C@@H](O)c4cccc(Cl)c4)cc[nH]c3=O)nc12 [BMS536924] (first compound 0.4 µM, partner dose 0.2 µM), the “cleaved PARP positive nuclei fraction” value was 80.1%.
The figure for `CCN(CC)CCNC(=O)c1c(C)[nH]c(/C=C2\C(=O)Nc3ccc(F)cc32)c1C` [sunitinib] + O=c1cc(-c2cccc3c2Sc2ccccc2S3)oc(N2CCOCC2)c1 [KU55933] (first compound 0.4 µM, partner dose 1 µM) is 101%.
`CS(=O)(=O)c1ccc(C(=O)Nc2ccc(Cl)c(-c3ccccn3)c2)c(Cl)c1` [vismodegib] + CN(NC(=O)CC(=O)NN(C)C(=S)c1ccccc1)C(=S)c1ccccc1 [STA4783] (first compound 1 µM, partner dose 0.006 µM): the “cleaved PARP positive nuclei fraction” value was found to be 304%.
For `Cn1cnc2c(F)c(Nc3ccc(Br)cc3Cl)c(C(=O)NOCCO)cc21` [selumetinib] + C=CCNC1=C2C[C@@H](C)C[C@H](OC)[C@H](O)[C@@H](C)/C=C(\C)[C@H](OC(N)=O)[C@@H](OC)/C=C\C=C(/C)C(=O)NC(=CC1=O)C2=O [Tanespimycin] (first compound 0.015 µM, partner dose 0.002 µM) the value was 103%; for `Cn1cnc2c(F)c(Nc3ccc(Br)cc3Cl)c(C(=O)NOCCO)cc21` [selumetinib] + O=S(=O)(c1ccccc1)N(CC(F)(F)F)c1ccc(C(O)(C(F)(F)F)C(F)(F)F)cc1 [T0901317] (first compound 0.015 µM, partner dose 1.4 µM), 78%; for `NC1(c2ccc(-c3nc4ccn5c(=O)[nH]nc5c4cc3-c3ccccc3)cc2)CCC1` + O=C(O)C(=O)Nc1sc2c(c1C(=O)O)CCNC2 [TCS401] (first compound 0.4 µM, partner dose 1.66667 µM), 67.5%.
Consider `CC1(C)CCC(c2ccc(Cl)cc2)=C(CN2CCN(c3ccc(C(=O)NS(=O)(=O)c4ccc(N[C@H](CCN5CCOCC5)CSc5ccccc5)c(S(=O)(=O)C(F)(F)F)c4)cc3)CC2)C1` + Nc1nc(F)nc2c1ncn2[C@@H]1O[C@H](CO)[C@@H](O)[C@@H]1O [fludarabine] (first compound 0.4 µM, partner dose 0.2 µM), for which the “cleaved PARP positive nuclei fraction” value came to 82.4%.
`Cn1sc(=O)n(Cc2ccccc2)c1=O` + C=CCNC1=C2C[C@@H](C)C[C@H](OC)[C@H](O)[C@@H](C)/C=C(\C)[C@H](OC(N)=O)[C@@H](OC)/C=C\C=C(/C)C(=O)NC(=CC1=O)C2=O [Tanespimycin] (first compound 0.4 µM, partner dose 0.002 µM): the “cleaved PARP positive nuclei fraction” value amounted to 69.5%.
On to `Cn1cnc2c(F)c(Nc3ccc(Br)cc3Cl)c(C(=O)NOCCO)cc21` [selumetinib] + COc1ccc2c(c1)CCC1C2CCC2(C)C(NCCCCCCN3C(=O)C=CC3=O)CCC12 [U73122] (first compound 0.015 µM, partner dose 0.4 µM), for which the “cleaved PARP positive nuclei fraction” value amounted to 186%.
Take `CCCCCCCCc1ccc(CCC(N)(CO)CO)cc1` [fingolimod] + CC(C)(C)c1cnc(CSc2cnc(NC(=O)C3CCNCC3)s2)o1 [SNS-032] (first compound 2 µM, partner dose 0.01 µM): the “cleaved PARP positive nuclei fraction” value came out at 158%.
For `NC(=O)c1ccc(N(C(N)=O)c2c(F)cccc2F)nc1-c1ccc(F)cc1F` + COCC[n+]1c2c(n(Cc3cnccn3)c1C)C(=O)c1ccccc1C2=O [YM155] (first compound 0.4 µM, partner dose 0.0004 µM) the value was 85.3%.
For the compound `NC1(c2ccc(-c3nc4ccn5c(=O)[nH]nc5c4cc3-c3ccccc3)cc2)CCC1` + CO[C@@H]1[C@H](N(C)C(=O)c2ccccc2)C[C@H]2O[C@]1(C)n1c3ccccc3c3c4c(c5c6ccccc6n2c5c31)C(=O)NC4 [Midostaurin] (first compound 0.4 µM, partner dose 0.08 µM), the “cleaved PARP positive nuclei fraction” value stood at 88.4%.
As to `CC1(C)CCC(c2ccc(Cl)cc2)=C(CN2CCN(c3ccc(C(=O)NS(=O)(=O)c4ccc(N[C@H](CCN5CCOCC5)CSc5ccccc5)c(S(=O)(=O)C(F)(F)F)c4)cc3)CC2)C1` + Cn1nnc2c(C(N)=O)ncn2c1=O [temozolomide] (first compound 0.4 µM, partner dose 2 µM), the “cleaved PARP positive nuclei fraction” value was found to be 149%.

The values above are taken from the supplement of paper PMC4604168 (melanoma cell lines).
